Here are results for six molecules from paper doi:10.1101/2020.04.17.028118.

Test [1] concerns the target T1, Dpb11 (tagged bait, overexpressed from the ADH1 promoter) (S. cerevisiae) (UniProt P47027).
T1 sequence: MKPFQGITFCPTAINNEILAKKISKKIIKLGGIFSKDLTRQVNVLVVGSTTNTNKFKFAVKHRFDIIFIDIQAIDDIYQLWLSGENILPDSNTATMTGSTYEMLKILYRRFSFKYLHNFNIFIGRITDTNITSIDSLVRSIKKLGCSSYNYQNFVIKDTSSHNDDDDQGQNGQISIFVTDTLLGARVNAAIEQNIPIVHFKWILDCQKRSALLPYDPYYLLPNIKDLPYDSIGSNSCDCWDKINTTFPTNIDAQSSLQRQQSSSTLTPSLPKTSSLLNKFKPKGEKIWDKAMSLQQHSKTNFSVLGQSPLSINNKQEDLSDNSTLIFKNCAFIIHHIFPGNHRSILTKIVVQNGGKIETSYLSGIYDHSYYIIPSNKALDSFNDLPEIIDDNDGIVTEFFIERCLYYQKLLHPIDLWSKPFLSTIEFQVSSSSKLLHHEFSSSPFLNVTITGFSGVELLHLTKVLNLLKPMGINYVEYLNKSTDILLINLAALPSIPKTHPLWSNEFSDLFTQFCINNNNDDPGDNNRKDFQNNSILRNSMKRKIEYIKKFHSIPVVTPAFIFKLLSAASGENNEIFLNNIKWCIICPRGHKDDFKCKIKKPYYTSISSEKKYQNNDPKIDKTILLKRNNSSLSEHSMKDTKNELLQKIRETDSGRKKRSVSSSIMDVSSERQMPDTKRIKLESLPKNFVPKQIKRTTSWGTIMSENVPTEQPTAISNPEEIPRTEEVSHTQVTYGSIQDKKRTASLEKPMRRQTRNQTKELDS
The test is described as follows: affinity purification with mass spectrometry.

Test [2] addresses T2, Dpb11-K55A (bait of the affinity purification with MS) (S. cerevisiae) (UniProt P47027).
T2 sequence: T1 sequence with K55A
The test is described as follows: affinity purification with mass spectrometry.

Where a chain is given by its changes, count along the chain named. These are yes or no findings as the source states them, for the method shown. In cells and extracts the contact can be indirect. A yes stands for co-enrichment or nearness to the bait. Other partners may have been found. For some of these results: Tags and fused reporters may be left off the sequences shown.

Slx4 (from UniProt Q12098 1-748): the binding result in test [1] is listed as “binds”.

B1: Rmi1 (protein, UniProt Q02685 1-241)
chain: MSFSSILSQDITDDITPPAYSATLGSREQIVFRAYQNEPWLAGTASNLILDKKLVIVDRELLFQVLMVENITKSKLTQIDDIKTKLDPKKQKVDRLRSGAQGNGAKKYEVITQVDMEDDGNVADNNCAKENNSNNNSSAAKNKAVFKLTLQSKSGDVFFAINSTPISWSSCMLGSKIVILPGTVFNRGVFILKDSQVIFLGGINRVWNENRDQKFCDYLESKLQRDKQLVNGGSKKRKAND
Consider B1, for which, in test [1], the binding result is on record as “binds”.

B2: Top3 (protein, UniProt P13099 1-656)
chain: MKVLCVAEKNSIAKAVSQILGGGRSTSRDSGYMYVKNYDFMFSGFPFARNGANCEVTMTSVAGHLTGIDFSHDSHGWGKCAIQELFDAPLNEIMNNNQKKIASNIKREARNADYLMIWTDCDREGEYIGWEIWQEAKRGNRLIQNDQVYRAVFSHLERQHILNAARNPSRLDMKSVHAVGTRIEIDLRAGVTFTRLLTETLRNKLRNQATMTKDGAKHRGGNKNDSQVVSYGTCQFPTLGFVVDRFERIRNFVPEEFWYIQLVVENKDNGGTTTFQWDRGHLFDRLSVLTFYETCIETAGNVAQVVDLKSKPTTKYRPLPLTTVELQKNCARYLRLNAKQSLDAAEKLYQKGFISYPRTETDTFPHAMDLKSLVEKQAQLDQLAAGGRTAWASYAASLLQPENTSNNNKFKFPRSGSHDDKAHPPIHPIVSLGPEANVSPVERRVYEYVARHFLACCSEDAKGQSMTLVLDWAVERFSASGLVVLERNFLDVYPWARWETTKQLPRLEMNALVDIAKAEMKAGTTAPPKPMTESELILLMDTNGIGTDATIAEHIDKIQVRNYVRSEKVGKETYLQPTTLGVSLVHGFEAIGLEDSFAKPFQRREMEQDLKKICEGHASKTDVVKDIVEKYRKYWHKTNACKNTLLQVYDRVKASM
As for B2, the binding result in test [1] is on record as “binds”.

B3: Sld2 (protein, UniProt P34252 1-453)
chain: MYSFELDKLKIELKTWEHDFIDKNKREPTRDDIKSLRTVRQMYKQYSTLKKKQSLQRQKVDTQESVELPAHKKDHDEVVEIGPTPQVYGKAISIFDMNLSPIKPIYMTFTNNIDVNNDNSKTISNESSPRKTILLKSSPADRTLVAEPISSVKRQLNFQMLNASSTRTPTSSPCKNRNGKLVEIKKCSPTINPPLESGKPSGYYGPNSPLKLDEENIHLNISLNSSTKRRLQIAYPSLQKTPSKDQADISTSFSPSPLIRRPLTKSLIELAREHTEIVKEFGVLQEEDIEEEEEGEEGENGYDEKNHEDDFGLEDELIRPKVVKDIFQEDDDNDDSQAREDTFIRKRPKRRKVIRRLRDNDPETETAGFERDVHKELVKLKRRKVAEFLGSTSQISDTEFEHDPEASSGVVSSEQKPTAKRKGRKKYNLVSNNFRRLKLPKKNRFSNGRWGRR
Take B3: the binding result in test [2] and in test [1] was “binds” in each case.

B4: Ddc1 (protein, UniProt Q08949 1-612)
chain: MSFKATITESGKQNIWFRAIYVLSTIQDDIKITVTTNELIAWSMNETDTTLCQVRFQKSFFEEYEFKPHEIVFGENGVQVIEDTYGNSHKLYSFRVNGRHLTTISRKPDGDGIKSFTIAVNNTSTCPESLANRLIVVIEMDSLIVKEYCPQFQPIKYDPIIINLKYKRRFLDVFGTAASDRNPQEPLDPKLLDVFTNTERELTSALFNEEVESDIRKRNQLTAADEINYICCNSTLLKNFLDNCNVNVTDEVKLEINVHRLSITAFTKAVYGKNNDLLRNALSMSNTISTLDLEHYCLFTTIEDEKQDKRSHSKRREHMKSIIFKLKDFKNFITIGPSWKTTQDGNDNISLWFCHPGDPILMQMQKPGVKLELVEVTDSNINDDILEGKFIKTAISGSKEEAGLKDNKESCESPLKSKTALKRENLPHSVAGTRNSPLKVSYLTPDNGSTVAKTYRNNTARKLFVEEQSQSTNYEQDKRFRQASSVHMNMNREQSFDIGTTHEVACPRNESNSLKRSIADICNETEDPTQQSTFAKRADTTVTWGKALPAADDEVSCSNIDRKGMLKKEKLKHMQGLLNSQNDTSNHKKQDNKEMEDGLGLTQVEKPRGIFD
In the case of B4, the binding result in test [1] was “binds”.

B5: Rtt107 (protein, UniProt P38850 1-1070)
chain: MSTSLLFEQLNFLILVAAEAELPIAHSTRKLLMDNSCNNCQIYELYNENLKDVKTDKDWFMNKFGPQTVHFVISNTINFPFYKIVYFDLLIPVVSHTWVQDSVKTKRHLRTNMYSPNPFHLLRDCQVYISKSSFNKCEYILYSDLLHLLGGTLVNYISNRTTHVIVQSPQDPIIATVSKLTFGSFSSSSTNKHTEKPLREWKFVYPIWILYHFKMAKPLKGELATLCELDMQDTSEEQLFAKWEEVIGDKQTSSSQLTLHPNKTLFKNHHFAISPDLNFFTPLYWFLKGFIEDLDGKVTPLSFSDDLKSVYQAFPDIDCYIGHSANSPILEKTKSIKPEIHVGNVSWLFYMFALQKFTPVSQCKLIHQPFHAKLFTSKELTVAYTNYFGSQRFYIQRLVEILGGLSTPELTRKNTHLITKSTIGKKFKVAKKWSLDPQNAIIVTNHMWLEQCYMNNSKLNPKDSRFQNFKLDDNMGWNIGQIGMDHSSLPTPKNLSMVTYDTQSISEKPPPTNDQMDQINDNTNVLSKKDGTPISSFENSIDEKIDKLQKISGEVAVTHSGDLERSFVSRPSRASFPVVDSKKSNLQKKDSNSDISMETEVFCEGHEKREEKEFTKPITEYDAPKKQEIREQSRKKNDIDYKKEEEETELQVQLGQRTKREIKTSKKNEKEKETNECHIEVDQMTNEKQGEESTGKLISTEDVTSKKDTDKFSHLFEGLSDNDDHINDEKPAVNSKYTTPKTSQNITSGVDTPTTAQTQVFMPSSGNSRLAKTQAAKRLHTDIESLNEFQKNFKRKRIDSEEISLSQDVERSNNNKELATKAEKILARFNELPNYDLKAVCTGCFHDGFNEVDIEILNQLGIKIFDNIKETDKLNCIFAPKILRTEKFLKSLSFEPLKFALKPEFIIDLLKQIHSKKDKLSQININLFDYEINGINESIISKTKLPTKVFERANIRCINLVNDIPGGVDTIGSVLKAHGIEKINVLRSKKCTFEDIIPNDVSKQENGGIFKYVLIVTKASQVKKFTKLINDRDKNETILIVEWNWCVESIFHLNVDFTSKKNVLYQKKNN
In the case of B5, the binding entry in test [1] is listed as “binds”.
